Results from US6441134B1, “Isolated Candida albicans oligopeptide transporter gene” (The University of Tennessee Research Corporation, dated 2002).
Some entries share one result that the patent states for a list of compounds.

Tested on: S. cerevisiae PB1X-9B(pOPT1)
Type: cell-based, Saccharomyces cerevisiae
Details: ammonium sulfate as nitrogen source; 0.38 μmoles per 6 mm disk; 24-48 hr
Method: S. cerevisiae PB1X-9B is sensitive to the toxic amino acid ethionine Eth) but is resistant to ethionine containing di-, tri-, tetra-, and pentapeptides. Disk sensitivity assays was utilized to determine if cells transformed with pOPT1 were sensitive to toxic peptides and whether this sensitivity was dependent upon nitrogen source.
Sensitivity to ethionine, a toxic methionine analog, and ethionine-containing peptides was determined by the method described by Island et al. (1987). Cells were grown overnight to exponential phase of growth in SC, washed, and resuspended at 5×10^6 cells /ml in sterile water. One ml of this cell suspension was added to 3 ml molten Noble agar (0.8% final concentration) and overlayed on 20 ml of the same medium used to prepare the inoculum. A disk (6 mm diameter, Difco) was placed on the plate and 0.38 μmoles of the compounds to be tested were applied to the disks. Zones of inhibition were measured after 24-48 hr incubation at 30 iC. Each test comprised at least three independent assays and the results represented in the Tables are means of the values obtained. Maximum variation between the zones of inhibition measured for each test were ^23 mm. A value of 7 mm for the diameter of zone of inhibition represents a minimal growth inhibition value as the disk diameter was 6 mm. […]

Row | Substance | zone of growth inhibition
1 | KLLAEth: ethionine-containing toxic pentapeptide, SEQ ID NO:15 | 11-15 mm
2 | Lysysl-Leucyl-Alanyl-Ethionine [KLAEth] | 11-15 mm
